Experimental data: patent CN102924600A
Results are given in words; binding and its absence hold for the method and conditions named. Some results given as binding are weak or reduced against the parent protein; the word gives no strength.

The chains behind the UniProt entries cited, without tags or fusion partners. Residues count along the entry.
UniProt O14763, residues 56-210: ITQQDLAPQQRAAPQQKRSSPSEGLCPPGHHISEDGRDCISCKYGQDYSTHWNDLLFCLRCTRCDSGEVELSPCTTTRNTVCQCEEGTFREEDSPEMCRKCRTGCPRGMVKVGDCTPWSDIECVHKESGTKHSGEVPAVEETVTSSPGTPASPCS

Biological target: DR5胞外区蛋白 (DR5抗原, peproTech公司) (human) (UniProt O14763)
Assay: phage display panning on plate-coated DR5 antigen (5 rounds)

- binding: binds
B1: 针对死亡受体5的单链抗体 (DR5单链抗体) (scFv)
scFv: DIVMTQSPSSLAVSAGERVTMSCKSSQSLLNSRTRKNCLAWYQQKPGQFPKLLIYWASTRESGVPDRFTGSGSGTDFTLTISSVQAEDLAVYYCQQSFDLPTFGGGTKLELKRGGGGSGGGGSGGGGSGGGGSEVQLQQSGAEPVKSGASVKLSCTASGFNIKDTFIHWVKQRPEQGLEWIGRIDPANGNTKYDPKFQGKATITADTSSNTVYLQFSSLTSEDAAVYYCSRGTTVYYFDHWGQGSTLTVSS
